Test results reported in PMC9600610.
No constants are given. Whether binding was seen depends on the method and setting. Binding seen in cells or lysates may run through a third protein. Some entries that bind do so weakly or less than the wild type.

The chains behind the UniProt entries cited, without tags or fusion partners.
UniProt P02584: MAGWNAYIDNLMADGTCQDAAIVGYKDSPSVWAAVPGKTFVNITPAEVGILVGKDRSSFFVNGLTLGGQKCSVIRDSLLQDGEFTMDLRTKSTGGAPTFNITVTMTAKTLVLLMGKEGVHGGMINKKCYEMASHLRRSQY
UniProt Q2KJ93: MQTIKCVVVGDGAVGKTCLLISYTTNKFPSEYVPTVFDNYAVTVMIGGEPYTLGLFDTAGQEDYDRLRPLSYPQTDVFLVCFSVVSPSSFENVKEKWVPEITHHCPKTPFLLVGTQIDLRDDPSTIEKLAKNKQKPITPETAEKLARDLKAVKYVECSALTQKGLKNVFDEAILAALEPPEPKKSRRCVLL

Target: Profilin1 (bovine (endogenous in bovine myoblasts)) (UniProt P02584)
Experiment: co-IP; PFN1 antibody or IgG on protein A/G magnetic beads, incubated with lysate of DM2 bovine myoblasts at 4 °C overnight; Cdc42 detected by Western blot

binding: binds
Substance: Cdc42 (from UniProt Q2KJ93 1-191)
